According to publication PMC7862700:
This is a selection; strong and weak results do not stand in their true shares. For some of these results: At the low end of the ranking the order means little.

molecular target: T1, ELK1 (UniProt P19419); assay: DAPPL (digital affinity profiling via proximity ligation, sequencing); conditions: 10 mM Tris-HCl pH 7.5, 50 mM NaCl, 1 mM DTT, 4% glycerol, room temperature, 30 min; GST-TFs on glutathione beads, 16-mer random dsDNA library, 0.1% …; high values mean tight binding; double strand, one strand shown; scale: fold enrichment (6-mer frequency, TF over GST control)
T1 sequence: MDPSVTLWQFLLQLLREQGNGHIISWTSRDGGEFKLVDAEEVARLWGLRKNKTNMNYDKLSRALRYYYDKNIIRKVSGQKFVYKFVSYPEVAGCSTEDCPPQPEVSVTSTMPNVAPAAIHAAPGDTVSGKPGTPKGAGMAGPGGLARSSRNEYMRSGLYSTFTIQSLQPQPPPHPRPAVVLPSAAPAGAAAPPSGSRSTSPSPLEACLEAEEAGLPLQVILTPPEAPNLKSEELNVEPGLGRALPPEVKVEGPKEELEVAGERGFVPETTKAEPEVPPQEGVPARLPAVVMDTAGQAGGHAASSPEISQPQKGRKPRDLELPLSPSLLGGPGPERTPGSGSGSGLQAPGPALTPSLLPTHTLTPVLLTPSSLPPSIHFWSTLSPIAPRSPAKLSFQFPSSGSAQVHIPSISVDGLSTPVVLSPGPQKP

| Sequence | binding signal |
| --- | --- |
| CTGTCA | 1.11 |
| CGGATA | 1.27 |
| CACATT | 1.16 |
| AACATG | 1.21 |
| CGACCC | 1.46 |
| TGCTAA | 1.37 |
| CAAAAT | 1.11 |
| TGACCT | 1.82 |
| TGCTCT | 1.48 |
| TACTGG | 0.948 |
| ATGACT | 1.42 |
| TATATA | 1.37 |
| ATGTAC | 1.31 |
| CTACTT | 1.77 |
| ACTCCT | 1.55 |
| TGTGCT | 1.23 |
| CTCGCC | 1.38 |
| ATGCGG | 1.22 |
| ACCCTA | 1.36 |
| CTCTTC | 1.64 |

| Sequence | binding signal |
| --- | --- |
| ACCGGA | 3.55 |
| TAACAA | 1.22 |
| ATGGAT | 1.11 |
| CTCATT | 1.32 |
| CATCTG | 1.23 |
| TTTATG | 1.21 |
| AGATCC | 1.12 |
| AAATTA | 1.18 |
| CATTTC | 1.86 |
| CTCCCG | 1.56 |
| ACGATC | 0.991 |
| CGACAC | 1.14 |
| GCGCTC | 1.2 |
| CCGCTA | 1.37 |
| CTGTAA | 0.956 |
| CTAGTT | 1.4 |
| TTGTCT | 1.23 |
| ACTTTG | 1.29 |
| TTAACC | 1.25 |

molecular target: T2, ETS2 (UniProt P15036); assay: as above; conditions: 10 mM Tris-HCl pH 7.5, 50 mM NaCl, 1 mM DTT, 4% glycerol, room temperature, 30 min; GST-TFs on glutathione beads, 16-mer random dsDNA library, 0.1% …; high values mean tight binding; double strand, one strand shown; scale: fold enrichment (6-mer frequency, TF over GST control)
T2 sequence: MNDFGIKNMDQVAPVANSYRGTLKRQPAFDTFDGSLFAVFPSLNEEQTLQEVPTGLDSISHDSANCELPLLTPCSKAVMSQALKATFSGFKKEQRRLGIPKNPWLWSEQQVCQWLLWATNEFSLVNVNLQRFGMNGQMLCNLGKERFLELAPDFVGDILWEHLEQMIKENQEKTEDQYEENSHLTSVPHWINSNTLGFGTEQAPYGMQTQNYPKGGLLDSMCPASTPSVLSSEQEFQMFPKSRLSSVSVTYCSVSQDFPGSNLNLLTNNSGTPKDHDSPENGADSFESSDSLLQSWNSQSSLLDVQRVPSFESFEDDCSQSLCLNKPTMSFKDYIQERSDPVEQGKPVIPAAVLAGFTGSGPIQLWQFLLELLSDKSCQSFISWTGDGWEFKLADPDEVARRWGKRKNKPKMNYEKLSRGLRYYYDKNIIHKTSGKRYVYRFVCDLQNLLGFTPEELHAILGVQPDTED

| Sequence | binding signal |
| --- | --- |
| CGGATA | 1.3 |
| CATCTG | 1.24 |
| ACGATC | 1.14 |
| CCGCTA | 1.32 |
